Some entries share one result that the patent states for a list of compounds.
System: Heliothis virescens eggs
Assay: Activity against Heliothis virescens (application to eggs)
Format: in vivo
Conditions: 400 ppm active ingredient, eggs on cotton sprayed, after 8 days

SMILES	percentage hatching rate of the eggs and survival rate of the caterpillars (% activity)
CNC(=O)c1c(NC(=O)c2cc(C(F)(F)F)nn2-c2ncccc2Cl)c(C)nc2ccccc12 [Compound T81.1]	over 80%
CNC(=O)c1sc2cccc(Cl)c2c1NC(=O)c1cc(C(F)(F)F)nn1-c1ncccc1Cl [Compound T79.1]	over 80%
Cc1c(NC(=O)c2cc(C(F)(F)F)nn2-c2ncccc2Cl)c(C(=O)NC(C)C)nc2ccccc12 [Compound T75.3]	over 80%
CNC(=O)c1nc2ccccc2c(C)c1NC(=O)c1cc(C(F)(F)F)nn1-c1ncccc1Cl [Compound T75.1]	over 80%
